Measurements published in paper PMC12871931, “The importin‐alpha superfamily engages in ethylene signaling by shuttling ETHYLENE INSENSITIVE 2 from the endoplasmic reticulum to the nucleus” (The Febs Journal, 2025).
These are yes or no findings as the source states them, for the method shown. Binding seen in cells or lysates may run through a third protein. Some entries that bind do so weakly or less than the wild type. Sequences can lack the tags named with a protein.

T1: EIN2C^479–1294 fused to Cerulean (Arabidopsis thaliana) (UniProt Q9S814)
T1 sequence: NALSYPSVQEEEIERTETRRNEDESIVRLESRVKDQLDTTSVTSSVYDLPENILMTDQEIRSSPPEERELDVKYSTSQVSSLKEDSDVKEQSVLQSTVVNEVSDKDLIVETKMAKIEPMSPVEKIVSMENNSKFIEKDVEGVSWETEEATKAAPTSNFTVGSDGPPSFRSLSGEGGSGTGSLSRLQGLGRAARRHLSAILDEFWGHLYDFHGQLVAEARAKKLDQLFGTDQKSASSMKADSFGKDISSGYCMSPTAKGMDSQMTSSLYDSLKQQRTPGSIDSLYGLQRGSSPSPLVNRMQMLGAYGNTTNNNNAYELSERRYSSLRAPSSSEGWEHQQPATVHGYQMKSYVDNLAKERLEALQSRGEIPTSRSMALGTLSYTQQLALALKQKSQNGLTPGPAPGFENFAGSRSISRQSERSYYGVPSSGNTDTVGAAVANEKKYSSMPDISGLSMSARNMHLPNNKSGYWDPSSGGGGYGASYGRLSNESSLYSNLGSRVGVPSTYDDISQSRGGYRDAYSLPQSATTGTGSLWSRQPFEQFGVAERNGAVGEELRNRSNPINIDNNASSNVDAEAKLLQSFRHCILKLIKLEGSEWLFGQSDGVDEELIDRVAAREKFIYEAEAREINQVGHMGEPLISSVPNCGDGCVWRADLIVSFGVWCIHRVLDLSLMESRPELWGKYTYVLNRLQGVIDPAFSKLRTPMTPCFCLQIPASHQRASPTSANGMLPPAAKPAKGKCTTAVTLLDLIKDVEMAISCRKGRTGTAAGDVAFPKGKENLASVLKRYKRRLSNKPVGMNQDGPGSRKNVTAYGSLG


Biological target: T1, EIN2C^479–1294 fused to Cerulean (Arabidopsis thaliana)
Assay: FRET or BRET; in planta FLIM-FRET in transiently transformed N. benthamiana epidermal leaf cells; Cerulean fusion as donor, YFP fusions as acceptors; cytosol, ER or nucleus (IMPα5-YFP and IMPα6-YFP: nuclei only)

binding	Binder
binds	IMPα6 fused to YFP (protein, UniProt Q9FWY7 1-538) MSYKPSAKTEVRRNRYKVSVDADEGRRRREDNMVEIRKNKREENLQKKRREGFNPSMASQPGQDFSSSLPTETRLENIQQMIAGVMSEDRDLQLEATASFRRLLSIERNPPINEVVQSGVVPHIVQFLSRDDFTQLQFEAAWALTNIASGTSENTRVIIDSGAVPLFVKLLSSASEEVREQAVWALGNVAGDSPKCRDHVLSCEAMMSLLAQFHEHSKLSMLRNATWTLSNFCRGKPQPAFEQTKAALPALERLLHSTDEEVLTDASWALSYLSDGTNEKIQTVIDAGVIPRLVQLLAHPSPSVLIPALRTIGNIVTGDDIQTQAVISSQALPGLLNLLKNTYKKSIKKEACWTISNITAGNTSQIQEVFQAGIIRPLINLLEIGEFEIKKEAVWAISNATSGGNHDQIKFLVSQGCIRPLCDLLPCPDPRVVTVTLEGLENILKVGEAEKNLGNTGNDNLYAQMIEDADGLDKIENLQSHDNNEIYEKAVKILESYWAADDEEEDIGGVDAPENVQSSGFQFGNQSGNAPTGGFNFG
binds	IMPα7 fused to YFP (protein, UniProt Q9M9X7 1-528) MKGGETMSVRRSGYKAVVDGVGGRRRREDDMVEIRKAKREESLLKKRREALPHSPSADSLDQKLISCIWSDERDLLIEATTQIRTLLCGEMFNVRVEEVIQAGLVPRFVEFLTWDDSPQLQFEAAWALTNIASGTSENTEVVIDHGAVAILVRLLNSPYDVVREQVVWALGNISGDSPRCRDIVLGHAALPSLLLQLNHGAKLSMLVNAAWTLSNLCRGKPQPPFDQVSAALPALAQLIRLDDKELLAYTCWALVYLSDGSNEKIQAVIEANVCARLIGLSIHRSPSVITPALRTIGNIVTGNDSQTQHIIDLQALPCLVNLLRGSYNKTIRKEACWTVSNITAGCQSQIQAVFDADICPALVNLLQNSEGDVKKEAAWAICNAIAGGSYKQIMFLVKQECIKPLCDLLTCSDTQLVMVCLEALKKILKVGEVFSSRHAEGIYQCPQTNVNPHAQLIEEAEGLEKIEGLQSHENNDIYETAVKILETYWMEEEEEEDQEQQDMIYFPVDNFANMPTSSGTLSEMHCGP
